{"source": "paper PMC5490336", "binders": {"B1": {"name": "GST-tagged AGR2, O95994 21-175 (protein)", "chain": "RDTTVKPGAKKDTKDSRPKLPQTLSRGWGDQLIWTQTYEEALYKSKTSNKPLMIIHHLDECPHSQALKKVFAENKEIQKLAEQFVLLNLVYETTDKHLSPDGQYVPRIMFVDPSLTVRADITGRYSNRLYAYEPADTALLLDNMKKALKLLKTEL"}}, "biological_target": "full length p53 (human), P04637", "experiment": "ELISA; p53 absorbed onto the solid phase; GST-tagged proteins titrated in solution phase; detected with GST antibodies, peroxidase conjugated secondary antibodies, chemiluminescence (RLU); both purified", "conditions": "remark: other sources report otherwise", "note": "No constants are given. Whether binding was seen depends on the method and setting. Where a sequence is shown, tags or fusion partners need not be part of it.", "data": [{"binder": "B1", "values": [{"measurement": "binding", "result": "no binding"}]}]}
